This is one part of the list.
Assays:
Experiment in all cases: glycan array binding signal (z-score within array); higher = stronger binding
Settings in all cases: glycan notation: IUPAC condensed, linker removed
[1] = target: Gal(b1-3)GlcNAc
How it was run: (§1)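 The binding signal is a Z-score computed within each array and averaged over linkers. Arrays of the same protein sequence at different concentrations or buffers were also averaged together. Data originate from 3228 arrays in the Consortium for Functional Glycomics database, kept only where the protein sequence was available.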

[2] = target: Gal(b1-3)GlcNAc(a1-3)Gal(b1-4)GlcNAc
How it was run: as §1

[3] = target: Gal(b1-3)GlcNAc(a1-6)Gal(b1-4)GlcNAc
How it was run: as §1

[4] = target: Gal(b1-3)GlcNAc(b1-2)Man(a1-3)[Gal(b1-3)GlcNAc(b1-2)Man(a1-6)]Man(b1-4)GlcNAc(b1-4)GlcNAc
How it was run: as §1

[5] = target: Gal(b1-3)GlcNAc(b1-2)Man(a1-3)[Gal(b1-3)GlcNAc(b1-2)Man(a1-6)]Man(b1-4)GlcNAc(b1-4)[Fuc(a1-6)]GlcNAc
How it was run: as §1

[6] = target: Gal(b1-3)GlcNAc(b1-2)Man(a1-3)[GlcNAc(b1-4)][Gal(b1-3)GlcNAc(b1-2)Man(a1-6)]Man(b1-4)GlcNAc(b1-4)GlcNAc
How it was run: as §1

[7] = target: Gal(b1-3)GlcNAc(b1-2)[Gal(b1-3)GlcNAc(b1-6)]Man(a1-6)[Gal(b1-3)GlcNAc(b1-2)Man(a1-3)]Man(b1-4)GlcNAc(b1-4)GlcNAc
How it was run: as §1

[8] = target: Gal(b1-3)GlcNAc(b1-3)Gal(b1-3)GlcNAc
How it was run: as §1

[9] = target: Gal(b1-3)GlcNAc(b1-3)Gal(b1-4)Glc
How it was run: as §1

[10] = target: Gal(b1-3)GlcNAc(b1-3)Gal(b1-4)GlcNAc
How it was run: as §1

[11] = target: Gal(b1-3)GlcNAc(b1-3)Gal(b1-4)GlcNAc(b1-6)[Gal(b1-3)GlcNAc(b1-3)]Gal(b1-4)Glc
How it was run: as §1

[12] = target: Gal(b1-3)GlcNAc(b1-3)Gal(b1-4)[Fuc(a1-3)]GlcNAc(b1-6)[Gal(b1-3)GlcNAc(b1-3)]Gal(b1-4)Glc
How it was run: as §1

[13] = target: Gal(b1-3)GlcNAc(b1-3)GalNAc
How it was run: as §1

[14] = target: Gal(b1-3)GlcNAc(b1-6)Gal(b1-4)GlcNAc
How it was run: as §1

[15] = target: Gal(b1-3)GlcNAc(b1-6)GalNAc
How it was run: as §1

[16] = target: Gal(b1-3)GlcNAc6S
How it was run: as §1

[17] = target: Gal(b1-3)[Fuc(a1-4)]GlcNAc
How it was run: as §1

[18] = target: Gal(b1-3)[Fuc(a1-4)]GlcNAc(b1-2)Man(a1-3)[Gal(b1-3)[Fuc(a1-4)]GlcNAc(b1-2)Man(a1-6)]Man(b1-4)GlcNAc(b1-4)[Fuc(a1-6)]GlcNAc
How it was run: as §1

[19] = target: Gal(b1-3)[Fuc(a1-4)]GlcNAc(b1-3)Gal(b1-3)[Fuc(a1-4)]GlcNAc
How it was run: as §1

[20] = target: Gal(b1-3)[Fuc(a1-4)]GlcNAc(b1-3)Gal(b1-4)GlcNAc
How it was run: as §1

[21] = target: Gal(b1-3)[Fuc(a1-4)]GlcNAc(b1-3)Gal(b1-4)[Fuc(a1-3)]GlcNAc
How it was run: as §1

[22] = target: Gal(b1-3)[Fuc(a1-4)]GlcNAc(b1-6)GalNAc
How it was run: as §1

[23] = target: Gal(b1-3)[GlcNAc(b1-6)]GalNAc
How it was run: as §1

[24] = target: Gal(b1-3)[Neu5Ac(a2-6)]GalNAc
How it was run: as §1

[25] = target: Gal(b1-3)[Neu5Ac(a2-6)]GlcNAc(b1-6)Gal(b1-4)Glc
How it was run: as §1

[26] = target: Gal(b1-3)[Neu5Ac(b2-6)]GalNAc
How it was run: as §1

[27] = target: Gal(b1-4)Gal
How it was run: as §1

[28] = target: Gal(b1-4)GalNAc(a1-3)[Fuc(a1-2)]Gal(b1-4)GlcNAc
How it was run: as §1

[29] = target: Gal(b1-4)GalNAc(b1-3)[Fuc(a1-2)]Gal(b1-4)GlcNAc
How it was run: as §1

[30] = target: Gal(b1-4)Glc
How it was run: as §1

[31] = target: Gal(b1-4)Glc6S
How it was run: as §1

[32] = target: Gal(b1-4)GlcNAc
How it was run: as §1

[33] = target: Gal(b1-4)GlcNAc(a1-6)Gal(b1-4)GlcNAc
How it was run: as §1

[34] = target: Gal(b1-4)GlcNAc(b1-2)Man
How it was run: as §1

[35] = target: Gal(b1-4)GlcNAc(b1-2)Man(a1-3)Man(b1-4)GlcNAc(b1-4)GlcNAc
How it was run: as §1

[36] = target: Gal(b1-4)GlcNAc(b1-2)Man(a1-3)[Gal(b1-4)GlcNAc(b1-2)Man(a1-6)]Man(b1-4)GlcNAc(b1-4)GlcNAc
How it was run: as §1

[37] = target: Gal(b1-4)GlcNAc(b1-2)Man(a1-3)[Gal(b1-4)GlcNAc(b1-2)Man(a1-6)]Man(b1-4)GlcNAc(b1-4)[Fuc(a1-6)]GlcNAc
How it was run: as §1

[38] = target: Gal(b1-4)GlcNAc(b1-2)Man(a1-3)[Gal(b1-4)GlcNAc(b1-2)][GlcNAc(b1-4)]Man(b1-4)GlcNAc(b1-4)GlcNAc
How it was run: as §1

[39] = target: Gal(b1-4)GlcNAc(b1-2)Man(a1-3)[GlcNAc(b1-2)Man(a1-6)]Man(b1-4)GlcNAc(b1-4)GlcNAc
How it was run: as §1

[40] = target: Gal(b1-4)GlcNAc(b1-2)Man(a1-3)[Man(a1-6)]Man(b1-4)GlcNAc(b1-4)GlcNAc
How it was run: as §1

[41] = target: Gal(b1-4)GlcNAc(b1-2)Man(a1-6)Man(b1-4)GlcNAc(b1-4)GlcNAc
How it was run: as §1

[42] = target: Gal(b1-4)GlcNAc(b1-2)Man(a1-6)[GlcNAc(b1-2)Man(a1-3)]Man(b1-4)GlcNAc(b1-4)GlcNAc
How it was run: as §1

[43] = target: Gal(b1-4)GlcNAc(b1-2)Man(a1-6)[Man(a1-3)]Man(b1-4)GlcNAc(b1-4)GlcNAc
How it was run: as §1

[44] = target: Gal(b1-4)GlcNAc(b1-2)[Gal(b1-4)GlcNAc(b1-4)]Man(a1-3)[Gal(b1-4)GlcNAc(b1-2)Man(a1-6)]Man(b1-4)GlcNAc(b1-4)GlcNAc
How it was run: as §1

[45] = target: Gal(b1-4)GlcNAc(b1-2)[Gal(b1-4)GlcNAc(b1-4)]Man(a1-3)[Gal(b1-4)GlcNAc(b1-2)[Gal(b1-4)GlcNAc(b1-6)]Man(a1-6)]Man(b1-4)GlcNAc(b1-4)GlcNAc
How it was run: as §1

B1: Intelectin-1a (Mus musculus) (protein)
chain: AEWSHPQFEKAEENLDTNRWGNSFFSSLPRSCKEIKQEHTKAQDGLYFLRTKNGVIYQTFCDMTTAGGGWTLVASVHENNMRGKCTVGDRWSSQQGNRADYPEGDGNWANYNTFGSAEAATSDDYKNPGYFDIQAENLGIWHVPNKSPLHNWRKSSLLRYRTFTGFLQHLGHNLFGLYKKYPVKYGEGKCWTDNGPALPVVYDFGDARKTASYYSPSGQREFTAGYVQFRVFNNERAASALCAGVRVTGCNTEHHCIGGGGFFPEGNPVQCGDFASFDWDGYGTHNGYSSSRKITEAAVLLFYR
[1]
  glycan array binding signal (z-score): 0.341
[2]
  glycan array binding signal (z-score): -0.63
[3]
  glycan array binding signal (z-score): -0.798
[4]
  glycan array binding signal (z-score): 1.7
[5]
  glycan array binding signal (z-score): -1.01
[6]
  glycan array binding signal (z-score): -0.573
[7]
  glycan array binding signal (z-score): -0.178
[8]
  glycan array binding signal (z-score): -0.407
[9]
  glycan array binding signal (z-score): 0.971
[10]
  glycan array binding signal (z-score): -1.33
[11]
  glycan array binding signal (z-score): 2.74
[12]
  glycan array binding signal (z-score): 0.979
[13]
  glycan array binding signal (z-score): -0.411
[14]
  glycan array binding signal (z-score): -0.207
[15]
  glycan array binding signal (z-score): 0.883
[16]
  glycan array binding signal (z-score): -0.197
[17]
  glycan array binding signal (z-score): -0.153
[18]
  glycan array binding signal (z-score): 0.779
[19]
  glycan array binding signal (z-score): -1.27
[20]
  glycan array binding signal (z-score): 0.614
[21]
  glycan array binding signal (z-score): -1.16
[22]
  glycan array binding signal (z-score): 2.02
[23]
  glycan array binding signal (z-score): 0.85
[24]
  glycan array binding signal (z-score): 0.131
[25]
  glycan array binding signal (z-score): 0.312
[26]
  glycan array binding signal (z-score): -0.949
[27]
  glycan array binding signal (z-score): 0.379
[28]
  glycan array binding signal (z-score): 0.11
[29]
  glycan array binding signal (z-score): 0.969
[30]
  glycan array binding signal (z-score): 0.206
[31]
  glycan array binding signal (z-score): -0.292
[32]
  glycan array binding signal (z-score): -0.531
[33]
  glycan array binding signal (z-score): -0.364
[34]
  glycan array binding signal (z-score): -1.09
[35]
  glycan array binding signal (z-score): -0.473
[36]
  glycan array binding signal (z-score): -0.839
[37]
  glycan array binding signal (z-score): 0.34
[38]
  glycan array binding signal (z-score): -0.539
[39]
  glycan array binding signal (z-score): -0.25
[40]
  glycan array binding signal (z-score): -0.594
[41]
  glycan array binding signal (z-score): 0.843
[42]
  glycan array binding signal (z-score): -0.048
[43]
  glycan array binding signal (z-score): -0.71
[44]
  glycan array binding signal (z-score): 0.052
[45]
  glycan array binding signal (z-score): 0.316

Reference: the supplement of paper PMC8728848
